No constants are given. Whether binding was seen depends on the method and setting. Some results given as binding are weak or reduced against the parent protein; the word gives no strength.
Legend:
[1] = target: human LILRB4 expressed on cells (human) (UniProt Q8NHJ6); assay: flow cytometry on human primary monocytes, THP-1 GFP cells and CHO RB4 cells; axis log(conc) without unit
[2] = target: human LILRB4 expressed on cells (human) (UniProt Q8NHJ6); assay: flow cytometry on human primary monocytes and THP-1 cells (FIG. 32)

Protein sequences, listed by entry. Tags and fused reporters are not part of them. Residues count along the entry.
UniProt Q8NHJ6, residues 22-448: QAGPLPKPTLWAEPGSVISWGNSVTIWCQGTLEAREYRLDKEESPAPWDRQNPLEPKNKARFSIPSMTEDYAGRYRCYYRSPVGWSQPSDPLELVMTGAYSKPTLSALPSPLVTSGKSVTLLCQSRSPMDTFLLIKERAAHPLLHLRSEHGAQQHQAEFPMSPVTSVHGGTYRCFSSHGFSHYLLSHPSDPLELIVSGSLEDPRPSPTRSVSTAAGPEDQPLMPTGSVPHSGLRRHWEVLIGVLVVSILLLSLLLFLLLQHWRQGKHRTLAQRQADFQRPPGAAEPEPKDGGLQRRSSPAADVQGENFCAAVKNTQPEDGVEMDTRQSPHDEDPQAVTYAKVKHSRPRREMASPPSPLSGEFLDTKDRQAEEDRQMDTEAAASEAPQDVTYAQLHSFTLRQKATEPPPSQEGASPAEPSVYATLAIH

binding [1]: binds
binding [2]: binds
B1: H7K3m5 scFv, VhVl configuration (scFv)
scFv: EVQLVESGGGLVQPGGSLRLSCAASGFSLSSSYWISWVRQAPGKGLEWIGSIDSGSVGITYYATWVKGRFTISRDNSKNTLYLQMNSLRAEDTAVYYCARHGDNWALDLWGQGTLVTVSSGGGGSGGGGSGGGGSDIQMTQSPSTLSASVGDRVTITCRASQSISSWLAWYQQKPGKAPKLLIYKASTLASGVPSRFSGSGSGTEFTLTISSLQPDDFATYYCQHGYIRGDLDNVFGGGTKVEIK

Source: patent US20230340114A1
